PubChem BioAssay AID504774, Drosophila RNAi Screening Center – 2011

Test: 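Genes required for cells to withstand methyl methanesulphonate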 (primary screen)
Cell system: Drosophila Kc167 cells
Reagents: long dsRNA against Drosophila genes, about 0.25 µg dsRNA per well
Time to read-out: about 6 days: 3 days knock-down, then 3 days with or without MMS
Conditions: methyl methanesulphonate 0.004% (w/v) for 3 days after knock-down
Measurement: 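Viability in wells given MMS, read as ATP luminescence, normalised by quantiles plate by plate and averaged across replicates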
Reading the numbers: mean viability with MMS and viability with MMS: higher = more surviving cells after MMS
In all, the deposit lists about 23,000 reagents; shown is a random part of those that have a named target and a result. 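Values are quantile-normalised luminescence on an arbitrary scale; higher means more cells surviving MMS.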 A plus sign joins genes that one reagent is predicted to hit. No sequences are given here.

no.	Gene	PubChem SID	mean viability with MMS	viability with MMS, replicate 1	viability with MMS, replicate 2
1	Unc-76 (Uncoordinated 76)	SID104197985	3.50e6	4.04e6	3.92e6
2	Unc-76 (Uncoordinated 76)	SID104198352	3.63e6	4.18e6	4.05e6
3	CG6345	SID104195816	3.78e6	4.17e6	4.22e6
4	mRpL16 (mitochondrial ribosomal protein L16)	SID104198342	3.60e6	3.92e6	4.24e6
5	CG3699	SID104197963	3.58e6	4.01e6	4.11e6
6	CG3699	SID104198434	3.60e6	3.93e6	4.24e6
7	ssp3 (short spindle 3)	SID104182461	3.57e6	3.94e6	4.17e6
8	ssp3 (short spindle 3)	SID104182462	3.58e6	3.92e6	4.22e6
9	Neb-cGP	SID104197783	3.58e6	4.04e6	4.04e6
10	CG6937 + btn	SID104196709	3.47e6	3.98e6	3.87e6
11	CG18636	SID104182477	3.44e6	3.87e6	3.93e6
12	CG34231	SID104185115	3.60e6	4.08e6	4.03e6
13	CG11362	SID104183898	3.72e6	4.26e6	4.15e6
14	CG11362	SID104201616	3.75e6	4.25e6	4.16e6
15	ND-B14.7 (NADH dehydrogenase (ubiquinone) B14.7 subunit)	SID104184336	3.34e6	3.69e6	3.82e6
16	spict (spichthyin)	SID104181949	3.61e6	4.19e6	4.04e6
17	CG3085	SID104184127	3.70e6	4.12e6	4.16e6
18	Tep4 (Thioester-containing protein 4)	SID104183245	3.44e6	3.94e6	3.85e6
19	Mst77F (Male-specific transcript 77F)	SID104191663	3.73e6	4.13e6	4.21e6
20	fzr2 (fizzy-related 2)	SID104184072	3.40e6	4.12e6	3.89e6
21	Abd-B (Abdominal B)	SID104193890	3.59e6	4.12e6	4.05e6
22	Abd-B (Abdominal B)	SID104194129	3.62e6	4.08e6	4.16e6
23	prom (prominin)	SID104184476	3.54e6	4.02e6	4.02e6
24	prom (prominin)	SID104201201	3.55e6	3.96e6	4.11e6
25	prom (prominin)	SID104201658	3.64e6	4.16e6	4.03e6
26	vls (valois)	SID104181893	3.52e6	3.93e6	4.05e6
27	lmd (lame duck)	SID104195410	3.53e6	4.02e6	3.99e6
28	CG12436 (retired record)	SID104189661	3.58e6	3.93e6	4.18e6
29	CG12436 (retired record)	SID104189677	3.68e6	4.08e6	4.22e6
30	VhaAC45RP (VhaAC45-related protein)	SID104195215	1.68e6	3.81e6	3.87e6
31	PXo (P[[i]]-sensitive XPR1 orthologue)	SID104189526	3.84e6	4.33e6	4.38e6
32	beta-Spec (beta Spectrin)	SID104200103	3.62e6	4.11e6	4.08e6
33	COX7C (Cytochrome c oxidase subunit 7C)	SID104186623	3.56e6	4.06e6	4.03e6
34	Uvrag (UV-resistance associated gene)	SID104182724	3.50e6	3.74e6	4.18e6
35	CG15337	SID104197812	3.62e6	4.15e6	4.05e6
36	CG15337	SID104202139	3.57e6	4.01e6	4.04e6
37	teq (Tequila)	SID104190090	3.33e6	3.83e6	3.65e6
38	teq (Tequila)	SID104191093	3.33e6	3.80e6	3.68e6
39	teq (Tequila)	SID104191094	3.40e6	3.74e6	3.95e6
40	MAGE	SID104192296	3.52e6	4.02e6	3.98e6
41	Gcn2	SID104196470	3.62e6	4.11e6	4.08e6
42	CG15059	SID104199425	3.57e6	4.02e6	4.08e6
43	CG1428	SID104183500	3.54e6	4.10e6	3.91e6
44	CG3746	SID104184204	3.66e6	4.11e6	4.19e6
45	Cpr67Fa1 (Cuticular protein 67Fa1)	SID104190724	3.71e6	4.12e6	4.24e6
46	CG18294 + 825-Oak + CG32214 + 2 more	SID104201746	3.63e6	4.05e6	4.12e6
47	FoxP (Forkhead box P)	SID104194951	3.55e6	4.07e6	3.99e6
48	FoxP (Forkhead box P)	SID104201573	3.47e6	3.94e6	3.94e6
49	Ctr1B + Poxm	SID104196037	3.45e6	3.88e6	3.96e6
50	CG14005	SID104182129	3.48e6	3.80e6	4.04e6
51	SP2353	SID104187337	3.22e6	3.62e6	3.66e6
52	CG4741	SID104184277	3.57e6	4.10e6	4.01e6
53	ND-49 (NADH dehydrogenase (ubiquinone) 49 kDa subunit)	SID104196943	3.43e6	3.95e6	3.84e6
54	cact (cactus)	SID104183293	3.63e6	4.08e6	4.18e6
55	Or56a (Odorant receptor 56a)	SID104187287	3.53e6	4.00e6	4.01e6
56	CG12643	SID104197641	3.57e6	4.02e6	4.05e6
57	CG33966	SID104188048	3.55e6	4.02e6	4.02e6
58	crq (croquemort)	SID104180602	3.56e6	4.02e6	4.09e6
59	CAH13 (Carbonic anhydrase 13)	SID104185920	3.47e6	3.90e6	3.98e6
60	CG7333	SID104196021	3.76e6	4.02e6	4.52e6
61	CG4267	SID104180439	3.58e6	4.11e6	4.03e6
62	RpS17 (Ribosomal protein S17)	SID104191063	3.16e6	3.56e6	3.54e6
63	CheA29a (Chemosensory protein A 29a)	SID104201216	3.67e6	4.18e6	4.10e6
64	Jabba	SID104186313	3.38e6	3.87e6	3.82e6
65	CG34300	SID104193769	3.40e6	3.80e6	3.90e6
66	Tk (Tachykinin)	SID104194746	3.40e6	3.97e6	3.93e6
67	Tk (Tachykinin)	SID104201582	3.61e6	4.02e6	4.13e6
68	dpr7 (defective proboscis extension response 7)	SID104196901	3.66e6	4.08e6	4.13e6
